Data as given in PubChem BioAssay AID504808 (Drosophila RNAi Screening Center, 2011)
In all, the deposit lists about 21,000 reagents; this is a random part of those with a known target gene and a result. In the full data, 18 (0.084%) got an active call. 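Raw counts without plate normalisation, one of two replicates; the ratio scores behind the calls were not deposited.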 A number with no mark means an inactive call. Names joined by + are all predicted targets of the reagent. Not given: the amount of reagent, the time to read-out.

Screen: 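Fly genes required to hold E2F transcription in check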 (primary screen)
Cell system: Drosophila S2 cells
Reagents: long dsRNA against Drosophila genes
Measurement: 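Dual luciferase plate measurements; E2F-specific signal taken as firefly over Renilla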
Reading the numbers: E2F firefly: higher = more E2F reporter activity; Renilla normaliser: higher = more normaliser reporter signal
Rule for the call: 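Called active if the normalised E2F reporter went up by over 50%; the cutoff is arbitrary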

gene	dsRNA	E2F firefly, rep 1	Renilla normaliser, rep 1
CG4953	DRSC02792	76416	4162
Syt12	DRSC19359	1.39e5	6217
rdo	DRSC02452	87570	3732
wun	DRSC07719	3058	202
bys	DRSC18748	7274	816
CG18417	DRSC10319	96986	3981
HemK1	DRSC03253	1.04e5	4315
crol	DRSC03514	68296	3161
Gyf	DRSC17202	2226	856
Nopp140	DRSC11872	1.38e5	6854
CG32225	DRSC09657	89954	3933
Pex6 + Hao	DRSC06097	3080	163
Pex6 + Hao	DRSC06704	1.49e5	4878
CG5664	DRSC11782	53706	3579
Fam92	DRSC02952	78448	3602
sno	DRSC20378	8702	784
CG15635	DRSC00470	1.55e5	5176
AttC	DRSC06886	87544	3973
CG42380 + CG42379 + PIG-M + 1 more	DRSC03884	1.20e5	4131
CG42380 + CG42379 + PIG-M + 1 more	DRSC04580	81852	3278
SpdS	DRSC16408	1.42e5	6123
Edem1	DRSC18573	1937	1016
CG31195	DRSC13440	80435	2301
Nmdmc	DRSC16760	67688	3497
CG1208	DRSC12190	67657	3041
CtsL2	DRSC06978	218	39
CG5888	DRSC01929	79771	4012
Evi5	DRSC19421	1.03e5	5243
emp	DRSC04019	1.42e5	6572
emp	DRSC04683	83640	3714
strat	DRSC03069	1.52e5	4813
RpL34b	DRSC16475	1.37e5	7157
CG13725	DRSC10054	51507	2640
Iris	DRSC00663	81183	3500
CG16868	DRSC06633	71382	3568
Nup37	DRSC14419	1.06e5	7006
CG18599	DRSC15357	1.36e5	6856
Hexo1	DRSC08663	87372	3458
pio	DRSC04386	80137	3481
CG42324	DRSC08431	1.09e5	4113
CG42324	DRSC08432	1.09e5	4678
Tep2	DRSC02679	1.43e5	4570
Tep2	DRSC03451	1.47e5	4782
CG13392	DRSC02262	1.47e5	168
Pgm2b	DRSC05978	2944	208
CG6574	DRSC16070	1.33e5	6092
CG1647	DRSC15134	1957	868
Jhbp15	DRSC15217	1.48e5	7257
Act88F	DRSC14105	91594	5996
CG6254	DRSC16002	71471	3352
Obp19b	DRSC20536	1.43e5	6356
CREG	DRSC16595	1.27e5	6641
CG3792	DRSC02725	1.39e5	4951
Exd2	DRSC16105	1.38e5	6392
Mtpalpha	DRSC01994	73164	3512
CG34249 (retired record)	DRSC09431	1.34e5	3820
CG13723	DRSC10052	1.59e5	6892
Fie	DRSC08158	77267	3962
CG11723	DRSC00324	1.05e5	3733
moi + Tgs1	DRSC16371	1.52e5	7150
CG16789	DRSC15155	1.73e5	5926
spn-E	DRSC17064	1.20e5	7007
CG9813	DRSC16569	73490	3429
Ent1	DRSC00330	86811	4112

Copied from the listing (11 entries):
gene	dsRNA	E2F firefly, rep 1	Renilla normaliser, rep 1
Tep2	DRSC02679	1.43e5	4570
Tep2	DRSC03451	1.47e5	4782
CG13392	DRSC02262	1.47e5	168
Pgm2b	DRSC05978	2944	208
CG6574	DRSC16070	1.33e5	6092
CG1647	DRSC15134	1957	868
Jhbp15	DRSC15217	1.48e5	7257
Act88F	DRSC14105	91594	5996
CG6254	DRSC16002	71471	3352
Obp19b	DRSC20536	1.43e5	6356
CREG	DRSC16595	1.27e5	6641

More entries:
gene	dsRNA	E2F firefly, rep 1	Renilla normaliser, rep 1
tio	DRSC03739	1.04e5	4690
CG1785	DRSC18139	7026	780
mio	DRSC00692	79913	2917
Pcp	DRSC03395	1.49e5	5673
CG31777	DRSC00201	1.43e5	5634
cg	DRSC07650	69271	3174
bora	DRSC10744	69068	3144
GNBP-like3	DRSC06385	1.43e5	4425
Ir25a	DRSC00462	1.39e5	4952
CG12848	DRSC04128	1.08e5	4844
ADD1	DRSC07135	2701	215
BomBc1	DRSC06501	1.26e5	4892
bab2	DRSC08150	94355	4182
bab2	DRSC08380	1.04e5	3739
stum	DRSC04268	1.19e5	4719
stum	DRSC04270	1.12e5	4986
CG16713	DRSC00477	1.49e5	5340
CG14408	DRSC19595	8455	848
CG31088	DRSC13123	78565	2070
Acp32CD	DRSC01858	1.64e5	5547
Tom20	DRSC10899	69045	3997
Hip14	DRSC10570	83920	3203
Mipp1	DRSC11223	78015	3373
Syn	DRSC16876	1.26e5	6524
CG1791	DRSC18141	7611	780
Lar	DRSC01707	1.35e5	6338
Lar	DRSC03361	80785	3591
CG13308	DRSC09979	1.08e5	4011
CG12929	DRSC06242	1.58e5	4711
CG15128	DRSC06550	1.40e5	4151
Mob3	DRSC02791	1.64e5	5246
CG4686	DRSC15622	1.39e5	6263
CecC	DRSC16606	1.45e5	6310
CG1503	DRSC20512	1.42e5	5520
Drice	DRSC16715	1776	928
CG12708	DRSC19490	2.37e5	7331
CG42813 + CG42814	DRSC15939	1684	952
CG42813 + CG42814	DRSC15940	1.19e5	6682
RabGGTa	DRSC12189	79539	3960
ImpE1	DRSC11195	96679	3385
ImpE1	DRSC11196	86917	3493
Scr	DRSC12604	92089	5587
Prp6	DRSC10724	70285	3431
